Data as given in paper doi:10.1101/2021.07.26.453911.
Where a chain is given by its changes, count along the chain named. Read-outs that look alike come from different tables or passages of the source. No constants are given. Whether binding was seen depends on the method and setting. In cells and extracts the contact can be indirect. Some binding calls cover weakened binding; strength is not graded here. Tags and fused reporters may be left off the sequences shown. Values belong to the molecule of their own block, whether it stands above or below them.

Chains of the proteins cited; added tags and fusions are not shown. Lines headed by an entry give the natural chain unless they say otherwise; changes in a name come on top.
UniProt P42588, whole entry, stated change not applied: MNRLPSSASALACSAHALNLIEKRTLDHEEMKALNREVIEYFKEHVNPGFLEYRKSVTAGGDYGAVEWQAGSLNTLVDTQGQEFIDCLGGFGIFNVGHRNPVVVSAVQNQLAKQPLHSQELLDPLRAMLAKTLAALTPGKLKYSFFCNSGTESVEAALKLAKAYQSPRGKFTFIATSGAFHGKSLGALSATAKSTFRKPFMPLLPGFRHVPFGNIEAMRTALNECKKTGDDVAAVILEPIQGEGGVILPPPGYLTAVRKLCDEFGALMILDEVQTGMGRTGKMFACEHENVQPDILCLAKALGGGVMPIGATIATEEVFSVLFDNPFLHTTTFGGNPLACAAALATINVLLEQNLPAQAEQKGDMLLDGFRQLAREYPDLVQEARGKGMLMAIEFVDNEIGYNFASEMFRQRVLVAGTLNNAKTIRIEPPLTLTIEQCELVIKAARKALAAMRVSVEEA

Legend:
[1] = target: T1, ClpS (wild type), His6-ClpS or His10-ClpS (E. coli) (UniProt P0A8Q6); assay: pull-down
T1 sequence: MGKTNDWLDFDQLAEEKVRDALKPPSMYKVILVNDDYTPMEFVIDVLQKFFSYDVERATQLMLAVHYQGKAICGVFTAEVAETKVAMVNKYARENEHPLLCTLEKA

[2] = target: T1, ClpS (wild type), His6-ClpS or His10-ClpS (E. coli); assay: pull-down; remark: listed apart in the source

B2: LK16-AccD (processed AccD with Leu attached by LFTR to Lys16), recovered from ΔclpA cells (protein, UniProt P0A9Q5 16-304)
chain: LKASIPEGVWTKCDSCGQVLYRAELERNLEVCPKCDHHMRMTARNRLHSLLDEGSLVELGSELEPKDVLKFRDSKKYKDRLASAQKETGEKDALVVMKGTLYGMPVVAAAFEFAFMGGSMGSVVGARFVRAVEQALEDNCPLICFSASGGARMQEALMSLMQMAKTSAALAKMQERGLPYISVLTDPTMGGVSASFAMLGDLNIAEPKALIGFAGPRVIEQTVREKLPPGFQRSEFLIEKGAIDMIVRRPEMRLKLASILAKLMNLPAPNPEAPREGVVVPPVPDQEPEA
- binding [2]: binds

B4: AldB of Δaat cells (not modified by LFTR) (protein, UniProt P37685 1-512)
chain: MTNNPPSAQIKPGEYGFPLKLKARYDNFIGGEWVAPADGEYYQNLTPVTGQLLCEVASSGKRDIDLALDAAHKVKDKWAHTSVQDRAAILFKIADRMEQNLELLATAETWDNGKPIRETSAADVPLAIDHFRYFASCIRAQEGGISEVDSETVAYHFHEPLGVVGQIIPWNFPLLMASWKMAPALAAGNCVVLKPARLTPLSVLLLMEIVGDLLPPGVVNVVNGAGGVIGEYLATSKRIAKVAFTGSTEVGQQIMQYATQNIIPVTLELGGKSPNIFFADVMDEEDAFFDKALEGFALFAFNQGEVCTCPSRALVQESIYERFMERAIRRVESIRSGNPLDSVTQMGAQVSHGQLETILNYIDIGKKEGADVLTGGRRKLLEGELKDGYYLEPTILFGQNNMRVFQEEIFGPVLAVTTFKTMEEALELANDTQYGLGAGVWSRNGNLAYKMGRGIQAGRVWTNCYHAYPAHAAFGGYKQSGIGRETHKMMLEHYQQTKCLLVSYSDKPLGLF
- binding [2]: no binding

B5: SufD of Δaat cells (not modified by LFTR) (protein, UniProt P77689 1-423)
chain: MAGLPNSSNALQQWHHLFEAEGTKRSPQAQQHLQQLLRTGLPTRKHENWKYTPLEGLINSQFVSIAGEISPQQRDALALTLDSVRLVFVDGRYVPALSDATEGSGYEVSINDDRQGLPDAIQAEVFLHLTESLAQSVTHIAVKRGQRPAKPLLLMHITQGVAGEEVNTAHYRHHLDLAEGAEATVIEHFVSLNDARHFTGARFTINVAANAHLQHIKLAFENPLSHHFAHNDLLLAEDATAFSHSFLLGGAVLRHNTSTQLNGENSTLRINSLAMPVKNEVCDTRTWLEHNKGFCNSRQLHKTIVSDKGRAVFNGLINVAQHAIKTDGQMTNNNLLMGKLAEVDTKPQLEIYADDVKCSHGATVGRIDDEQIFYLRSRGINQQDAQQMIIYAFAAELTEALRDEGLKQQVLARIGQRLPGGAR
- binding [2]: no binding

Continued, values first:

- binding [1]: no binding
Molecule: PATase of Δaat cells (not modified by LFTR) (from UniProt P42588 1-459)

- binding [2]: no binding
B1: AccD of Δaat cells (not modified by LFTR) (protein, UniProt P0A9Q5 1-304)
chain: MSWIERIKSNITPTRKASIPEGVWTKCDSCGQVLYRAELERNLEVCPKCDHHMRMTARNRLHSLLDEGSLVELGSELEPKDVLKFRDSKKYKDRLASAQKETGEKDALVVMKGTLYGMPVVAAAFEFAFMGGSMGSVVGARFVRAVEQALEDNCPLICFSASGGARMQEALMSLMQMAKTSAALAKMQERGLPYISVLTDPTMGGVSASFAMLGDLNIAEPKALIGFAGPRVIEQTVREKLPPGFQRSEFLIEKGAIDMIVRRPEMRLKLASILAKLMNLPAPNPEAPREGVVVPPVPDQEPEA

- binding [2]: binds
B3: LT2-AldB (AldB with Leu attached by LFTR to Thr2), recovered from ΔclpA cells (protein, UniProt P37685 2-512)
chain: B4 chain with M1L
